{
  "sequences": {"note": "Protein sequences, listed by entry. Tags and fused reporters are not part of them. Lines headed by an entry give the natural chain unless they say otherwise; changes in a name come on top. Residues count along the entry.", "UniProt P32004": "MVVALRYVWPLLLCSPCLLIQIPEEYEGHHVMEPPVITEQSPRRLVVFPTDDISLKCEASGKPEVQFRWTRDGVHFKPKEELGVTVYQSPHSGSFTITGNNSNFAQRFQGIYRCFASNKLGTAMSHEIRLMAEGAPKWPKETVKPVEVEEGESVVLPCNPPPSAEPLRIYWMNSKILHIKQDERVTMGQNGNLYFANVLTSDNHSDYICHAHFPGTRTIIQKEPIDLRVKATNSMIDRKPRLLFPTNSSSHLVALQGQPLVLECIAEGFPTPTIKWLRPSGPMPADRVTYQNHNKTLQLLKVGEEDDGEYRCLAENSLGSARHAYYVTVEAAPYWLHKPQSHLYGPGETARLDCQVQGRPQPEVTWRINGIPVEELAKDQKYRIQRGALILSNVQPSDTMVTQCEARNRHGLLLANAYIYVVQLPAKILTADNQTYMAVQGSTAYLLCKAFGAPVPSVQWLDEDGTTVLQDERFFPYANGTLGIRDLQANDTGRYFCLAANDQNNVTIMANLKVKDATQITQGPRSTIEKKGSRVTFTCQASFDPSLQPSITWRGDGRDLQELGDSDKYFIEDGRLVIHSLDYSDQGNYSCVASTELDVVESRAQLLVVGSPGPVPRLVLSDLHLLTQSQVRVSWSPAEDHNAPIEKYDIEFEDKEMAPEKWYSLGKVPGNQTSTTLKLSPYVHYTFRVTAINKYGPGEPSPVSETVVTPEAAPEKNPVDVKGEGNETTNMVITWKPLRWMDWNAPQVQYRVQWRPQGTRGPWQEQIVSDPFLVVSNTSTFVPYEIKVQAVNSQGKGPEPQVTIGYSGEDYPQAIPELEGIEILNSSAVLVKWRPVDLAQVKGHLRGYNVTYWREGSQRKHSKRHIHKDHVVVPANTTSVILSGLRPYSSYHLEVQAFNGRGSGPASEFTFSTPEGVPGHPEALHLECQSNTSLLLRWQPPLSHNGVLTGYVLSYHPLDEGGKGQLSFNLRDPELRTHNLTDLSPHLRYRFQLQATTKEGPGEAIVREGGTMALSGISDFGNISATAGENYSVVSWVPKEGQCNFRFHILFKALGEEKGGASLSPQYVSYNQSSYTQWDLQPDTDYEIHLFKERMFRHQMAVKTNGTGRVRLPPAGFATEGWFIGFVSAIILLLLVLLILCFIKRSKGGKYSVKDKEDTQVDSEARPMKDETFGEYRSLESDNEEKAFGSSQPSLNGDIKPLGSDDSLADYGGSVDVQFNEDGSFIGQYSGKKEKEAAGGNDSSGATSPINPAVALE", "UniProt P11627, residues 20-1123": "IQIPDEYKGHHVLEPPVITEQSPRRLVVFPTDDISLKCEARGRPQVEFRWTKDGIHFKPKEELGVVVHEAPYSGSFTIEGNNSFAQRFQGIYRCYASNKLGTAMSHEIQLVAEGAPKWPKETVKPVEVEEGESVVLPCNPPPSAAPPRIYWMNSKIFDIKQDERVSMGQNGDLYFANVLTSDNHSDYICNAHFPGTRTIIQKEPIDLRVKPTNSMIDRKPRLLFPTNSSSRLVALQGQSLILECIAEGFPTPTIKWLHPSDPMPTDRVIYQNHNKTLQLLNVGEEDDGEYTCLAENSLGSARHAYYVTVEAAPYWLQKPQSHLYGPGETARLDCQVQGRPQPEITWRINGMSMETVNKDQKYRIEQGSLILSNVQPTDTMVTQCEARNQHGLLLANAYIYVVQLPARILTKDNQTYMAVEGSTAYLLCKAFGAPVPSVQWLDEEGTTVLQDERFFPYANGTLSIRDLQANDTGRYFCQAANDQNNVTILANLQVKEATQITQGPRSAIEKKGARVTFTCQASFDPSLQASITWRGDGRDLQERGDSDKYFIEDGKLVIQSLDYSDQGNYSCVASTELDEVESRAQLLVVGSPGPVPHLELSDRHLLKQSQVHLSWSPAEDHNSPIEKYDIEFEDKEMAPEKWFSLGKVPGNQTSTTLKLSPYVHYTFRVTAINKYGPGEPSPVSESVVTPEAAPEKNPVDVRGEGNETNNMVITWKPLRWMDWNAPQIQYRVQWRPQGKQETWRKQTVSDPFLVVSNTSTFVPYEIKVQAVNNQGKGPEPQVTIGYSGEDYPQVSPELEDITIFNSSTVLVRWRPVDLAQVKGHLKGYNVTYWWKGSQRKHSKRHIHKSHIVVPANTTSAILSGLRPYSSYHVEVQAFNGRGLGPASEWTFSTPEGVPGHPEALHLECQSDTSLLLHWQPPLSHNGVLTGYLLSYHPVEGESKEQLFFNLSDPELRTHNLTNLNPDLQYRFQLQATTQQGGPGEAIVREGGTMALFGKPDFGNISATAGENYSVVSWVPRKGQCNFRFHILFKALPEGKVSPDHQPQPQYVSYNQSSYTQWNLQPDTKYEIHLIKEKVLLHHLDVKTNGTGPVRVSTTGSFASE"},
  "source": "patent US20250340636A1",
  "about": "“ANTIBODIES TARGETING L1CAM AND USES THEREOF” (MEMORIAL SLOAN-KETTERING CANCER CENTER, priority 2023, published 2025)",
  "binders": {"B1": {"name": "Ch143G03-GF (antibody, V domains shown)", "VH": "QVQLRQSGAELVRPGTSVKMSCKASGYTFTNYYIHWVKQRPGQGLEWIGKIGPGSGSPYYNGMFKDKATLTVDTSSSTAYMQLSSLTSEDSAVYFCARWLLPFDYWGQGTTLTVSS", "VL": "QIVLSQSPGILSASPGEKVTMTCRASSSVNYMHWYQQKSGSSPKPWIFATSILASGVPPRFSGSGSGTSYSLTISSVEAEDTATYYCQQFSSDPLTFGAGTKLELK"}, "B2": {"name": "hu14A10 (antibody, V domains shown)", "VH": "EVQMVESGGGLVQPGGSLRLSCAAPGFIFSSYNMNWVRQAPGKGLEWVSYISSSSSTTYYADSVKGRFTISRDNAKNSLYLQMNSLRDEDTAVYYCASLYSGYDYYYYYGMDVWGQGTTVTVSS", "VL": "DIVMTQTPLSSPVSLGQPASISCRSSQSLVHSDGNTYLSWLQQRPGQPPRVLIYKISKRFSGVPDRFSGSGAGTDFTLKISRVEAEDVGVYYCMQATQFPFTFGPGTKVDIK"}, "B3": {"name": "143G03 (antibody, V domains shown)", "VH": "B1 VH", "VL": "B1 VL"}, "B4": {"name": "TDI-Y-004 (antibody, human IgG1, kappa, V domains shown)", "VH": "QVQLVQSGAEVKKPGSSVKVSCKASGYTFTNYYIHWVRQAPGQGLEWMGKIGPGSGSPYYQGMFKDRVTITADESTSTAYMELSSLRSEDTAVYYCARWLLPFDYWGQGTLVTVSS", "VL": "EIVLTQSPGTLSLSPGERATLSCRASSSVNYMHWYQQKPGQAPRLLIYATSILASGIPDRFSGSGSGTDYTLTISRLEPEDFAVYYCQQFSSDPLTFGGGTKVEIKR"}, "B5": {"name": "TDI-Y-005 (antibody, human IgG1, kappa, V domains shown)", "VH": "B2 VH", "VL": "DIVMTQTPLSSPVSLGQPASISCRSSQSLVHSDGNTYLSWLQQRPGQPPRVLIYKISKRFSGVPDRFSGSGAGTDFTLKISRVEAEDVGVYYCMQATQFPFTFGPGTKVDIKR"}, "B6": {"name": "76H12 Fab construct 1 (chimeric; parental mouse 76H12 V-regions) (Fab, V domains shown)", "VH": "QVQLQQPGSDLVRPGTSVKLSCKASGYTFTSYWMHWVKQRPGQGLEWIGNVYPGSGSTKYDEKFKTKATLTVDTSSNTAYMELSSLTSEDSAVYYCTRPGNYEGFAYWGQGTLVTVSA", "VL": "NIVLTQSPASLAVSLGQRATISCRASESVDSYGSSFMHWYQQKPGQPPKLLIYLASNLESGVPARFSGSGSRTDFTLTIDPVEADDAATYYCQQNNEDPWTFGGGTKLEIK"}, "B7": {"name": "76H12 Fab construct 2 (humanized) (Fab, V domains shown)", "VH": "QVQLVQSGAEVKKPGASVKVSCKASGYTFTSYWMHWVRQAPGQGLEWMGNVYPGSGSTKYAQKFQGRVTMTRDTSTSTVYMELSSLRSEDTAVYYCARPGNYEGFAYWGQGTLVTVSS", "VL": "NIQLTQSPSSLSASVGDRVTITCRASESVDSYGSSFMHWYQQKPGKPPKLLIYLASNLESGVPSRFSGSGSGTDFTLTISSLQPEDFATYYCQQNNEDPWTFGQGTKLEIK"}, "B8": {"name": "76H12 Fab construct 6 (humanized) (Fab, V domains shown)", "VH": "B7 VH with M48I, V68A, M70L, R72V, V79A, A97T", "VL": "B7 VL with N1D"}, "B9": {"name": "76H12 Fab construct 8 (humanized) (Fab, V domains shown)", "VH": "B7 VH with M48I, V68A, M70L, R72V, V79A, A97T", "VL": "B7 VL"}, "B10": {"name": "76H12 Fab construct 9 (humanized) (Fab, V domains shown)", "VH": "B7 VH with M48I, V68A, M70L, R72V, S77N, V79A, A97T", "VL": "B7 VL with N1D"}, "B11": {"name": "76H12 Fab construct 10 (humanized) (Fab, V domains shown)", "VH": "B7 VH with M48I, V68A, M70L, R72V, S77N, V79A, A97T", "VL": "B7 VL with N1D, G72R"}, "B12": {"name": "76H12 Fab construct 11 (humanized) (Fab, V domains shown)", "VH": "B7 VH with M48I, V68A, M70L, R72V, S77N, V79A, A97T", "VL": "B7 VL"}, "B13": {"name": "14A10 (antibody, V domains shown)", "VH": "B2 VH", "VL": "B2 VL"}, "B14": {"name": "13F04 (antibody, V domains shown)", "VH": "QVQLQQPGAELVKPGASVKLSCKASGYIFISYWMHWVKQRPGQGLEWIGEINPRNGRTNYNEKFKSKATLTVDKSSSTAYMQLTSLTSEDSAVYYCARGGDYGGSFDYWGQGTTLTVSS", "VL": "B6 VL with N1D, S34N, L54R, V62I, I79V, D80N, A87V, N95S"}, "B15": {"name": "13G04 (antibody, V domains shown)", "VH": "QVQLVQSGAEVKKPGASVKVSCKASGYTFIGYYLHWVRQAPGQGLEWMGWINPNSGGTNSAQKFQGRVTMTRDTSISTTYMDLSRLRSDDTAVYYCARGGLERRDAFDIWGQGTLVTVSS", "VL": "DIQMTQSPSTLSASVGDRVTITCRASQSISNWLAWYQQKPGKAPNLLIYKASSLESGVPSRFSGSGSGTEFTLTISSLQPDDFATYYCQQYDTYRTFGQGTKVEIK"}},
  "key": {"[1]": {"target": "human L1CAM on cells (human) (UniProt P32004)", "assay": "flow cytometry on MDA-MB-231 cells (endogenous L1CAM); panel title '20181210 EC50 of 143G03 mAbs on MDA-MB-231'"}, "[2]": {"target": "extracellular domain of human L1CAM (isoform 1) fused to a poly-histidine tag via its carboxy terminus (human) (UniProt P32004)", "assay": "BLI sensorgrams with fit lines; analyte concentrations and the L1CAM construct are not printed on the sheet or in the text (taken as soluble human L1CAM)"}, "[3]": {"target": "human L1CAM on cells (human) (UniProt P32004)", "assay": "summary of binding data"}, "[4]": {"target": "soluble cynomolgus monkey L1CAM, His-tagged, monomeric (cynomolgus monkey)", "assay": "BLI, soluble cynomolgus L1CAM-His"}, "[5]": {"target": "human L1CAM on cells (human) (UniProt P32004)", "assay": "flow cytometry, HEK293T-L1CAM, MCF-7 and MDA-MB-231 cells"}, "[6]": {"target": "soluble cynomolgus monkey L1CAM, His-tagged, monomeric (cynomolgus monkey)", "assay": "summary of the lead selection"}, "[7]": {"target": "human L1CAM on cells (human) (UniProt P32004)", "assay": "summary of the lead selection"}, "[8]": {"target": "human L1CAM on cells (human) (UniProt P32004)", "assay": "flow cytometry on HEK293T cells overexpressing human L1CAM; MFI normalised to secondary antibody only"}, "[9]": {"target": "soluble cynomolgus monkey L1CAM, His-tagged, monomeric (cynomolgus monkey)", "assay": "summary of Example 4"}, "[10]": {"target": "human L1CAM on cells (human) (UniProt P32004)", "assay": "summary of Example 4"}, "[11]": {"target": "human L1CAM on cells (human) (UniProt P32004)", "assay": "flow cytometry on MDA-MB-231 cells (endogenous L1CAM); MFI normalised to secondary antibody only"}, "[12]": {"target": "human L1CAM on cells (human) (UniProt P32004)", "assay": "flow cytometry on MCF-7 cells; MFI normalised to secondary antibody only"}, "[13]": {"target": "human L1CAM on cells (human) (UniProt P32004)", "assay": "flow cytometry, HEK293T-hL1CAM, MCF-7 and MDA-MB-231 cells"}, "[14]": {"target": "soluble mouse L1CAM (monomer), His-tagged (mouse) (UniProt P11627)", "assay": "summary of Example 4"}, "[15]": {"target": "soluble mouse L1CAM (monomer), His-tagged (mouse) (UniProt P11627)", "assay": "restated in the safety study of the ADCs"}, "[16]": {"target": "human L1CAM on cells (human) (UniProt P32004)", "assay": "flow cytometry, 293T cells engineered to overexpress L1CAM"}, "[17]": {"target": "soluble mouse L1CAM (monomer), His-tagged (mouse) (UniProt P11627)", "assay": "summary of the lead selection"}},
  "note": "Changes are numbered by the printed parent chain. No constants are given. Whether binding was seen depends on the method and setting. Some entries that bind do so weakly or less than the wild type.",
  "data": [
    {"binder": "B1", "values": [
      {"measurement": "binding", "setting": "[1]", "value": "binds"},
      {"measurement": "binding", "setting": "[2]", "value": "binds"}
    ]},
    {"binder": "B2", "values": [
      {"measurement": "binding", "setting": "[1]", "value": "binds"}
    ]},
    {"binder": "B3", "values": [
      {"measurement": "binding", "setting": "[3]", "value": "binds"},
      {"measurement": "binding", "setting": "[4]", "value": "binds"},
      {"measurement": "binding", "setting": "[5]", "value": "binds"},
      {"measurement": "binding", "setting": "[6]", "value": "binds"},
      {"measurement": "binding", "setting": "[7]", "value": "binds"},
      {"measurement": "binding", "setting": "[1]", "value": "binds"}
    ]},
    {"binder": "B4", "values": [
      {"measurement": "binding", "setting": "[8]", "value": "binds"},
      {"measurement": "binding", "setting": "[9]", "value": "binds"},
      {"measurement": "binding", "setting": "[10]", "value": "binds"},
      {"measurement": "binding", "setting": "[11]", "value": "binds"},
      {"measurement": "binding", "setting": "[12]", "value": "binds"},
      {"measurement": "binding", "setting": "[13]", "value": "binds"}
    ]},
    {"binder": "B5", "values": [
      {"measurement": "binding", "setting": "[8]", "value": "binds"},
      {"measurement": "binding", "setting": "[14]", "value": "binds"},
      {"measurement": "binding", "setting": "[9]", "value": "binds"},
      {"measurement": "binding", "setting": "[10]", "value": "binds"},
      {"measurement": "binding", "setting": "[15]", "value": "binds"},
      {"measurement": "binding", "setting": "[11]", "value": "binds"},
      {"measurement": "binding", "setting": "[12]", "value": "binds"},
      {"measurement": "binding", "setting": "[13]", "value": "binds"}
    ]},
    {"binder": "B6", "values": [
      {"measurement": "binding", "setting": "[16]", "value": "binds"}
    ]},
    {"binder": "B7", "values": [
      {"measurement": "binding", "setting": "[16]", "value": "binds"}
    ]},
    {"binder": "B8", "values": [
      {"measurement": "binding", "setting": "[16]", "value": "binds"}
    ]},
    {"binder": "B9", "values": [
      {"measurement": "binding", "setting": "[16]", "value": "binds"}
    ]},
    {"binder": "B10", "values": [
      {"measurement": "binding", "setting": "[16]", "value": "binds"}
    ]},
    {"binder": "B11", "values": [
      {"measurement": "binding", "setting": "[16]", "value": "binds"}
    ]},
    {"binder": "B12", "values": [
      {"measurement": "binding", "setting": "[16]", "value": "binds"}
    ]},
    {"binder": "B13", "values": [
      {"measurement": "binding", "setting": "[4]", "value": "binds"},
      {"measurement": "binding", "setting": "[5]", "value": "binds"},
      {"measurement": "binding", "setting": "[17]", "value": "binds"},
      {"measurement": "binding", "setting": "[6]", "value": "binds"},
      {"measurement": "binding", "setting": "[7]", "value": "binds"}
    ]},
    {"binder": "B14", "values": [
      {"measurement": "binding", "setting": "[4]", "value": "binds"},
      {"measurement": "binding", "setting": "[5]", "value": "binds"}
    ]},
    {"binder": "B15", "values": [
      {"measurement": "binding", "setting": "[4]", "value": "binds"},
      {"measurement": "binding", "setting": "[5]", "value": "binds"}
    ]}
  ]
}
